Measurements as given in patent US8889902B2, “Acetylsalicylic acid salts” (priority 2009, dated 2014).

Tested on: rat ear skin temperature
Assay: Ear skin temperature rise caused by NA, p.o. administration
Format: in vivo, Wistar rats
Protocol: Male Wistar rats (280-330 g) were used. Animals were held in groups of 6 in climatized rooms at 22±1° C., relative humidity 60±5%, and 12/12-hour light/dark cycle with free access to drinking water and feed (R3—Lactamin AB, Sweden). For registration of changes in skin temperature of intact rats contactless temperature recording method was used (Papaliodis D et al, Br J Pharmacol 2008; 153:1382-1387). Temperature measurements were performed with a hand-held infrared thermometer (Model Proscan 510, TFA-Dostman). Animals were habituated to handling and to the infrared probe for 3 days before use. Temperature readings from the dorsal side of each ear were recorded without anaesthesia at beginning and during experiment. The ear temperature was measured every 5 min. for a period of up to 60 min. The animals were returned to their cages between measurements. NA, MD and MASA were dissolved in saline and pH was corrected immediately before usage. LA (MK 0524, Cayman Chemicals) was first dissolved in DMSO and then freshly diluted with 0.9% NaCl, on each day of the experiment. The rate of NA and LA combination was based on Summary of Product Characteristics for Tredaptive™ (nicotinic acid/laropiprant) 1000 mg/20 mg modified-release tablets.
9.2.3. Investigation of the Effect of MASA/NA and MD/NA Combination on Skin Temperature at Simultaneous or 45 Min Advance p.o. Administration

CC(=O)Oc1ccccc1C(=O)[O-].C[N+](C)(C)NCCC(=O)O [MASA, 3-(trimethylammonioamino)propanoate Acetylsalicylic Acid Addition Salt]
Initial temp. (MASA 150 mg/kg p.o. alone): 29.7 ± 0.28 °C

C[N+](C)(C)NCCC(=O)[O-].O.O [MD, 3-(Trimethylammonioamino)propanoate dihydrate]
Initial temp. (MD 100 mg/kg p.o. alone): 29.9 ± 0.35 °C

O=C(O)c1cccnc1 [NA, nicotinic acid]
Initial temp. (NA 40 mg/kg p.o.): 30.0 ± 0.41 °C
